Experimental data as given in paper PMC11088158.

Sequences of proteins named here, by UniProt entry; tags and fusion partners are left off.
UniProt P18653: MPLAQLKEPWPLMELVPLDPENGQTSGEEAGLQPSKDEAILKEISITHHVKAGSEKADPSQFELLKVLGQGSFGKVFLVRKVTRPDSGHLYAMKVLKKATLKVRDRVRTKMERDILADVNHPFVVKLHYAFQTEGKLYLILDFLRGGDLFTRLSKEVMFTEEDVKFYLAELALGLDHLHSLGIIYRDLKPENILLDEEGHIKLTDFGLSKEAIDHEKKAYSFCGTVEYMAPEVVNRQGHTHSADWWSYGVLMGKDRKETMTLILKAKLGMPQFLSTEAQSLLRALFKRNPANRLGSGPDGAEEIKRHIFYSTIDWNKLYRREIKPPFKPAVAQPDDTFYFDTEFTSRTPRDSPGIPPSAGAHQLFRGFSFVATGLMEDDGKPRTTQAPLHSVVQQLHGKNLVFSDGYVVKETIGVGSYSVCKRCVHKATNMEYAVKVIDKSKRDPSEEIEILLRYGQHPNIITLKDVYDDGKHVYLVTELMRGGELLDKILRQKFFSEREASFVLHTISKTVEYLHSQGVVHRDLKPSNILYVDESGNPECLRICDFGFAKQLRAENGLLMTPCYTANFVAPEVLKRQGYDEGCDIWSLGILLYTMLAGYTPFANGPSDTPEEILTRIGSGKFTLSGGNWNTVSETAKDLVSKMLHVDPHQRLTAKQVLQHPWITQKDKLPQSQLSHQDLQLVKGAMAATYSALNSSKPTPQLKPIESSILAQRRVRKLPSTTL

T1: NLRP4E (mouse (endogenous in oocytes)) (UniProt Q66X19)
T1 sequence: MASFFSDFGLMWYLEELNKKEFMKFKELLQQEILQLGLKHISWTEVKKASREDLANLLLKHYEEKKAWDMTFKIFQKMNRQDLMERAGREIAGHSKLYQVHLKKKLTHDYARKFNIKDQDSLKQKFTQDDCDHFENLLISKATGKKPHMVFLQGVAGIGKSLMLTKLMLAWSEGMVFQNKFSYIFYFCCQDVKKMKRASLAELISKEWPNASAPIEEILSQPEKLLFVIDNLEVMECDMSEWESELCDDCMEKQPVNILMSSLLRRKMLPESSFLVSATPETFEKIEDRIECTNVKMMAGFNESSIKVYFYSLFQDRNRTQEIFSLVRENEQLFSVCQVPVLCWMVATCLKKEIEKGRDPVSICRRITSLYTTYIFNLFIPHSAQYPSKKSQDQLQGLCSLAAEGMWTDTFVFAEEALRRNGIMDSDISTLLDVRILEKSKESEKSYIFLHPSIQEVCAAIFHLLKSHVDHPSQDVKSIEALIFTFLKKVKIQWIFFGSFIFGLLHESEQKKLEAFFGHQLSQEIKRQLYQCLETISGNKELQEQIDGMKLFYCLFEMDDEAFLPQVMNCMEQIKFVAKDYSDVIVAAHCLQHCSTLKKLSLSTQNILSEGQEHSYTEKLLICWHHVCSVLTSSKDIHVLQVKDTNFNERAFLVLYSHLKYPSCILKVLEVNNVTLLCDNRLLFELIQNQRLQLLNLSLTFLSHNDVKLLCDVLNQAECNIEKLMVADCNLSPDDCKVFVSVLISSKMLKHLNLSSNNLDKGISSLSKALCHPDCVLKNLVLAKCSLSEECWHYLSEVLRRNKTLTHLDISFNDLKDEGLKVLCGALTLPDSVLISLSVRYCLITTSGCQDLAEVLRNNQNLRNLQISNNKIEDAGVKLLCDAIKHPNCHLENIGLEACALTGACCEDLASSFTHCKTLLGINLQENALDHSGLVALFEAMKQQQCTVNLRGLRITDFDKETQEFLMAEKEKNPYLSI

B1: G protein-regulated inducer of neurite outgrowth 1 (GRIN1) (protein, UniProt Q3UNH4 1-932)
chain: MRDCCSSPKAIPAPPRHALDQSLGMDPRHTSSSGAAEGASCSERPAGSLACPSPNCSPLPETPRAHGALTSDNSGTTLFGKPEPMSSAEATPTASEIRNPVFSGKMDGNSLKQADSTSTRKEEAGSLRNEESMLKGKAEPMIYGKGEPGTVGRVDCTASGAENSGSLGKVDMPCSSKVDIVSPGGDNAGSLRKVETISSGKMDPKTENVMHSRRERPGSTGEGDLVSLRENDMKPPDNTDSASTKKTDPEFSGKLTPGSSGKTELVSSVTVAPVTSENVNPVCSGGAGPAAVGNSETLSSVKKDPQLLGKKEAVSSGEGGSVSVRMAETVSARQPEGMFPAKTDSTSSNSTGPSGRADPVSLRNSELVSPVKPERLSSGQAERVSLVKTETLSSGKEDPRSSRRVDHTTVTGNMQTSQKGNPESSGKTDLGSSSSGDTRSLGTWGSLSAAKAEVTEGKGDPQPWKKASLPASEKTDPLASSKAGSASQGKAETVSPGEVDAMTLGKTVPTSSGKTALVSPGKVDLMTSERAEGIPELQASEKGNPVNSTRVDTGATGSTEPKSGVKVITQIPGATSPGKVETPSLQKEQPQLSEKTDPSRKVDPPTTVEPVSLGKADSASPSPRKAESQTSAKTVPQAPDKATSSLRQSDGTPYSSAQPQRDTRSIGSLPEREPSASTSQKDLAAAAAQKSPSAEAAAPPPGPRTRDNFTKAPSWDAGAPPPREDAGTQAGAQACVSVAVSPMSPQDGAGGPAFSFQAAPRAPSPAPRPPSRRDAGLQVSLGAAETRSVATGPMTPQAAAPPAVPPVFPEVRVRPGSVLAAALAPQEATEPVRDVSWDEKGMTWEVYGASMEVEVLGMAIQKHLERQIEEHGRQGAPAPAPPPAVRAGPGRAGSVRTAPAEGAAKRPPGLFRALLQSVRRPRCCSRAGPTAE
B2: radial spoke head protein 6 homolog A (RSHL1) (protein, UniProt Q8CDR2 1-708)
chain: MGEPPPNPDPSQTRRASQGSERARSQEYSQPLLTIPEDGLNRPPPQRGSRSSQGSQDLQGTGLPHWPQRSSLVPDVQGDEGTEYHQSMPLGYTPGFPMEFSQQGYLDDSRMMEQFPQGQDLLEQLESTYQGSASGILGQLNLYPREDEIFSQDTQHGPYLRDDPSLHLRPSDLGFMPIVGEVPDPEPRELAIQNAKAYLLRTSMSCNLSLYEHLVNLLTKILNQRPEDPLSILESLNRTMQWEWFHPKLDTLRDDPEMQPTYEMAEKQKALFIRGGGEGEQEMEEEVTDSPVPNIMETAFYFEQAGVGLSSDESFRIFLALKQLVEQQPIHMCRFWGKILGLSRSYLVAEVEFREGEEEGEEEEVEEMMEGGEVLETHGEEEGEEDEEKVVDSVPKPQWKPPPIIPKEESRSGTNKYLYFVCNEPGRPWTRLPHVTPAQIVCARKIKKFFTGFLDTPVISYPPFPGNEANYLRAQIARISAATHISPLGFYQFGEEEGDEEEEGGAGRDSFEENPDFEGIPVLELVDSMANWVHHTQHILPQGRCTWVNPLQKTEEEEELGEEEEKADEAMEEVEQEVGPPLLTPLSEDAEIMHLSPWTTRLSCSLSPQYSVAIVRSNLWPGAYAYATGKKFENIYIGWGHKYSPENFNPMLPALIQQEYPSGPEITEMSDPTVEEEQALKAAQEQALAAAEEEEEDEEEEEDEDLED

The molecules below were run against T1, NLRP4E (mouse (endogenous in oocytes)) (assay: affinity purification with mass spectrometry; IP with NLRP4E antibody or control IgG on protein A/G from mouse oocyte lysate; SDS-PAGE, silver staining; bands stronger in the NLRP4E lane cut and identified by MALDI-TOF-MS, proteins of the control bands subtracted).

binding, binds:
glycogen phosphorylase (mouse (endogenous in oocytes)), ribosomal protein S6 kinase alpha-1 (RSK) (from UniProt P18653 1-724), B1, B2

Results are given in words; binding and its absence hold for the method and conditions named. Binding seen in cells or lysates may run through a third protein. Here binding means that the protein was enriched with, or labelled near, the bait; the list need not be complete.
